# Laboratory results published in the supplement of paper PMC3682954.
# Where “and” joins values, the source holds several entries; their conditions need not be identical. Equal entries are not always repeated. Structures can show the parent of a compound that is named as a salt. ± gives the standard deviation of the averaged measurements. This is one part of the list. Many values rest on one well or one pass, so single values are uncertain.
# System: RAW 264.7
# Test: HMGB1-induced TNF-alpha production relative to HMGB1-stimulated control; higher = more TNF-alpha secretion (less inhibition)
# Details: stimulus: HMGB1 5 ug/ml, 18 h
# [1] = compound concentration: 1 ug/ml
SMILES,HMGB1-induced TNF-alpha production (compound concentration: 3 uM),HMGB1-induced TNF-alpha production [1] [%]
CN1CCOC(c2ccccc2)c2ccccc2C1 (centres undefined),86.7%,
CN1CCOC(c2ccccc2)c2ccccc2C1 (centres undefined) [Nefopam hydrochloride],71.5%,
N=C(N)NCCCCN [Agmatine sulfate],92%,
CN1CCC(=C2c3ccccc3CCc3sccc32)CC1 [Pizotyline],94.4%,
CN1CCC(=C2c3ccccc3CCc3sccc32)CC1,91.5%,
CN1CCC(=C2c3ccccc3CCc3sccc32)CC1 [Pizotifen malate],92.6%,
CCN(CC)CCOc1ccc(C(=C(Cl)c2ccccc2)c2ccccc2)cc1 [Clomiphene],93.6%,
"CCN(CC)CCOc1ccc(C(=C(Cl)c2ccccc2)c2ccccc2)cc1 [Clomiphene citrate (Z,E)]",64%,
CCN(CC)CCOc1ccc(C(=C(Cl)c2ccccc2)c2ccccc2)cc1,70.5%,
COc1ccc(NC(=O)c2ccc(-c3ccc(-c4noc(C)n4)cc3C)cc2)cc1N1CCN(C)CC1,87.4%,
CN(C)[C@@H]1C(O)=C(C(=O)NCNCCCC[C@H](N)C(=O)O)C(=O)[C@@]2(O)C(O)=C3C(=O)c4c(O)cccc4[C@@](C)(O)[C@H]3C[C@@H]12 [Lymecycline],84.7%,
CCCCNc1ccc(C(=O)OCCN(C)C)cc1 [Tetracaine hydrochloride],102%,
COc1ccc2c(c1)CC[C@@H]1[C@@H]2CC[C@]2(C)[C@@H](NCCCCCCN3C(=O)CCC3=O)CC[C@@H]12,125%,
COc1ccccc1N1CCN(CCCCNC(=O)c2ccc3ccccc3c2)CC1,55.3% and 76%,
CCC1NC(=O)c2cc(S(N)(=O)=O)c(Cl)cc2N1 (centres undefined) [Quinethazone],117%,
CC(O)(P(=O)(O)O)P(=O)(O)O [Etidronate],99.3%,
CC(O)(P(=O)(O)O)P(=O)(O)O,84.9%,
"CC(O)(P(=O)(O)O)P(=O)(O)O [Etidronic acid, disodium salt]",105%,
CC(COc1ccccc1Cc1ccccc1)N1CCCCC1 (centres undefined),93.6%,
Cc1cnc(C(=O)NCCc2ccc(S(=O)(=O)NC(=O)NC3CCCCC3)cc2)cn1,79.7%,

SMILES,HMGB1-induced TNF-alpha production (compound concentration: 3 uM),HMGB1-induced TNF-alpha production [1] [%]
Cc1cnc(C(=O)NCCc2ccc(S(=O)(=O)NC(=O)NC3CCCCC3)cc2)cn1 [Glipizide],94.2 ± 10%,
O=C(O)COCCN1CCN([C@H](c2ccccc2)c2ccc(Cl)cc2)CC1,115%,
CC(C)NC[C@H](O)COc1cccc2[nH]ccc12 [S(-)-Pindolol],86.9%,
O=S(=O)(O)c1cc(I)c(O)c2ncccc12,88.7%,
O=C1[C@H](CC[C@H](O)c2ccc(F)cc2)[C@@H](c2ccc(O)cc2)N1c1ccc(F)cc1,105 ± 4.3%,
COc1ccc(C(=O)c2ccccc2O)c(O)c1 [Dioxybenzone],109%,
COc1ccc(C(=O)c2ccccc2O)c(O)c1,68.1%,
CC(C)(C)NC[C@H](O)COc1ccccc1C1CCCC1 [Penbutolol sulfate],111%,
COCCc1ccc(OCC(O)CNC(C)C)cc1 (centres undefined) [Metoprolol],75.3%,
COCCc1ccc(OCC(O)CNC(C)C)cc1 (centres undefined),84.8%,
COc1ccc(CN2CCN(C(c3ccc(F)cc3)c3ccc(F)cc3)CC2)c(OC)c1OC [Lomerizine],59.2%,
COc1ccc(CN2CCN(C(c3ccc(F)cc3)c3ccc(F)cc3)CC2)c(OC)c1OC,94.1%,
COc1cc2c(cc1OC)C(=O)N(C)CC2 [N-methylcorydaldine],,75.5
CC(C)Cc1ccc(C(C)C(=O)O)cc1 (centres undefined) [Ibuprofen],129%,
CC(C)Cc1ccc(C(C)C(=O)O)cc1 (centres undefined),97.8%,
COC1=CC(=O)C=C(OC)C1=O,37.8%,
COC(=O)C(N)Cc1ccc(Cl)cc1 (racemic) [DL-p-Chlorophenylalanine methyl ester hydrochloride],95%,
Cc1cnc(C(=O)O)c[n+]1[O-] [Acipimox],98.9 ± 20%,
CC(=O)Nc1cccc(O)c1,70.2%,
O=c1c(O)c(-c2ccc(O)c(O)c2)oc2cc(O)cc(O)c12 [Quercetin dihydrate],90.7%,

# Quoted from above for reference:
SMILES,HMGB1-induced TNF-alpha production (compound concentration: 3 uM),HMGB1-induced TNF-alpha production [1] [%]
COCCc1ccc(OCC(O)CNC(C)C)cc1 (centres undefined),84.8%,
COc1ccc(CN2CCN(C(c3ccc(F)cc3)c3ccc(F)cc3)CC2)c(OC)c1OC [Lomerizine],59.2%,
COc1ccc(CN2CCN(C(c3ccc(F)cc3)c3ccc(F)cc3)CC2)c(OC)c1OC,94.1%,

# Further records

SMILES,HMGB1-induced TNF-alpha production (compound concentration: 3 uM),HMGB1-induced TNF-alpha production [1] [%]
O=C(O)C1(C(=O)O)CCC1.[NH2-].[NH2-].[Pt+2],90.4 ± 13%,
O=C(O)C1(C(=O)O)CCC1.[NH2-].[NH2-].[Pt+2] [Carboplatin],95.1 ± 1.8%,
O=C(O)[C@H]1/C(=C/CO)O[C@@H]2CC(=O)N21 [Potassium clavulanate],109%,
O=C(OCCOCCO)c1ccccc1Nc1cccc(C(F)(F)F)c1 [Etofenamate],102%,
CC1=C(C/C=C(\C)CCC[C@H](C)CCC[C@H](C)CCCC(C)C)C(=O)c2ccccc2C1=O,80.8%,
CC1=C(C/C=C(\C)CCC[C@H](C)CCC[C@H](C)CCCC(C)C)C(=O)c2ccccc2C1=O [Phylloquinone; phytonadione; Vitamin K_1],,72.4
"N[C@H](C(=O)O)[C@H]1C[C@@H]1C(=O)O [(2S,1'S,2'S)-2-(carboxycyclopropyl)glycine]",81.5%,
C=C(c1ccc(C(=O)O)cc1)c1cc2c(cc1C)C(C)(C)CCC2(C)C [Bexarotene],100%,
C#C[C@]1(O)CC[C@H]2[C@@H]3CCC4=C(CCC(=O)C4)[C@H]3CC[C@@]21C [Norethynodrel],68.7%,
C#C[C@]1(O)CC[C@H]2[C@@H]3CCC4=C(CCC(=O)C4)[C@H]3CC[C@@]21C,87.7%,
CC(C)(C)NCC(O)c1cc(O)cc(O)c1 (centres undefined),46.9%,
CC(C)(C)NCC(O)c1cc(O)cc(O)c1 (centres undefined) [Terbutaline hemisulfate],50.4 ± 12%,
NS(=O)(=O)c1cc2c(cc1Cl)NC(CC1CCCC1)NS2(=O)=O (centres undefined) [Cyclopenthiazide],81.5%,
O=C(O)CCCCC1CCSS1 (racemic) [DL-Thioctic acid],,86.7
O=C(O)CCCCC1CCSS1 (racemic) [(±)-alpha-Lipoic Acid],101%,
CCOC(=O)[N-]c1c[n+](N2CCOCC2)no1 [Molsidomine],91 ± 22%,
CCOC(=O)[N-]c1c[n+](N2CCOCC2)no1,88.2%,
CC[N+](CC)(CC)CCOc1cccc(OCC[N+](CC)(CC)CC)c1OCC[N+](CC)(CC)CC,71.5%,
CC[N+](CC)(CC)CCOc1cccc(OCC[N+](CC)(CC)CC)c1OCC[N+](CC)(CC)CC [Gallamine triethiodide],82.3 ± 4.2%,
